Test system: Arabidopsis Col‐0 and fer‐4 seedlings
Assay: Growth of Arabidopsis seedlings (root length, shoot fresh weight)
Details: Col-0 vs fer-4, 5 μM for 3 days

CN[C@@H]1C[C@H]2O[C@@](C)([C@@H]1OC)n1c3ccccc3c3c4c(c5c6ccccc6n2c5c31)C(=O)NC4 [Staurosporine]
Dependence on FER of the effect on root and shoot growth: partly dependent on FER
